The data set in a line: in vivo. The settings on record: mouse, iv. On the procedure: The acute toxicity of the products of the invention was determined on groups of 20 Swiss OF1 mice weighing 22 to 24 grams by intravenous route. […] The limits of confidence of these values were determined by the method of Litchfield and Wilcoxon (J. Pharmacol. Exp. Ther. 1949, pages 96 to 99) and are given in table III.

Broadly, the LD50 is the dose at which mortality reaches 50%.

With `CCN(CC)CC(=O)Nc1c(C)cccc1C` [lidocaine, reference compound], the LD50 at 192 h stood at 31.5 mg/kg.

These data come from patent US4301163A, “Amino-ether oxides and use thereof in therapy” (priority 1979, dated 1981).
